The targets with a hit were mostly taken out for another list; the other results follow. The data scatter; read single values as rough. Only a part is listed here, and it is no random draw.

Chains of the proteins cited; added tags and fusions are not shown. Lines headed by an entry give the natural chain unless they say otherwise; changes in a name come on top.
UniProt P52429: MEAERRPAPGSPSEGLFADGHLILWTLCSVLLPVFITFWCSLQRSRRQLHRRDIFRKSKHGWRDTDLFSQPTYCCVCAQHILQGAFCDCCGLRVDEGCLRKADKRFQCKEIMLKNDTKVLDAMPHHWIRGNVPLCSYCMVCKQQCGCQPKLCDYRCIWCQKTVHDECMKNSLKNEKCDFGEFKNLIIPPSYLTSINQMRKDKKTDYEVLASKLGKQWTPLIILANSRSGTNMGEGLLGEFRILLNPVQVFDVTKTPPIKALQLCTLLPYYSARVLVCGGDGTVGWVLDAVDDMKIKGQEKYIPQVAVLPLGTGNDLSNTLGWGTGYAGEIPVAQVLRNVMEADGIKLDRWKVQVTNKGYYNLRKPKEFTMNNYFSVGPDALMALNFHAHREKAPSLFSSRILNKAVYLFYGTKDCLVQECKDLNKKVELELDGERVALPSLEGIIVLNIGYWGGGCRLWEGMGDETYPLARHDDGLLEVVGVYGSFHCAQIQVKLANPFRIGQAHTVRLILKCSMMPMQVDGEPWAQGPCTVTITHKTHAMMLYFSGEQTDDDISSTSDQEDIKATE
UniProt P53618: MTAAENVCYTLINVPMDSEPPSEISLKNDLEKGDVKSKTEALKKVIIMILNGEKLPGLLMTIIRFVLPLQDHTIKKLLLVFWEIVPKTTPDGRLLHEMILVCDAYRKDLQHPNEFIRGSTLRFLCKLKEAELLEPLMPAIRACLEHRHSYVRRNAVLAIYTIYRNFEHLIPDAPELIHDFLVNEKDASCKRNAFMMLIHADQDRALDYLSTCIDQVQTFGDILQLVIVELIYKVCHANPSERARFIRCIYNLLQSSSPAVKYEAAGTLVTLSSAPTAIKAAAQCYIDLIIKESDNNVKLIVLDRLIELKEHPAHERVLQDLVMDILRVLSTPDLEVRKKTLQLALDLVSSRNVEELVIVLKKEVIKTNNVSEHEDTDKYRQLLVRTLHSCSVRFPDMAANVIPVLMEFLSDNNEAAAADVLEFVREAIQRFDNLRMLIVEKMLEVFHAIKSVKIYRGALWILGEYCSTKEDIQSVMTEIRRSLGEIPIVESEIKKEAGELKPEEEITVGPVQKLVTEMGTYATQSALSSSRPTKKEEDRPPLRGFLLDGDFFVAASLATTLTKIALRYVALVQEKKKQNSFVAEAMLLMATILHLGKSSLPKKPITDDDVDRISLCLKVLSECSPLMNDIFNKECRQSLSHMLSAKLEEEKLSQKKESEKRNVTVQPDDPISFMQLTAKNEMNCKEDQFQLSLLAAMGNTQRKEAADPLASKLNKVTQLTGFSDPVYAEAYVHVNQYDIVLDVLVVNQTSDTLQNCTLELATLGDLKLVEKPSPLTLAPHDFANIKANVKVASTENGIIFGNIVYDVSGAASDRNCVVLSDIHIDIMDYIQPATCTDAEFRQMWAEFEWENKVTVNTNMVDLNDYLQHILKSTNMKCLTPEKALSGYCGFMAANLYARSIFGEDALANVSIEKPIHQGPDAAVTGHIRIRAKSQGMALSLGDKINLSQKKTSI
UniProt P57772: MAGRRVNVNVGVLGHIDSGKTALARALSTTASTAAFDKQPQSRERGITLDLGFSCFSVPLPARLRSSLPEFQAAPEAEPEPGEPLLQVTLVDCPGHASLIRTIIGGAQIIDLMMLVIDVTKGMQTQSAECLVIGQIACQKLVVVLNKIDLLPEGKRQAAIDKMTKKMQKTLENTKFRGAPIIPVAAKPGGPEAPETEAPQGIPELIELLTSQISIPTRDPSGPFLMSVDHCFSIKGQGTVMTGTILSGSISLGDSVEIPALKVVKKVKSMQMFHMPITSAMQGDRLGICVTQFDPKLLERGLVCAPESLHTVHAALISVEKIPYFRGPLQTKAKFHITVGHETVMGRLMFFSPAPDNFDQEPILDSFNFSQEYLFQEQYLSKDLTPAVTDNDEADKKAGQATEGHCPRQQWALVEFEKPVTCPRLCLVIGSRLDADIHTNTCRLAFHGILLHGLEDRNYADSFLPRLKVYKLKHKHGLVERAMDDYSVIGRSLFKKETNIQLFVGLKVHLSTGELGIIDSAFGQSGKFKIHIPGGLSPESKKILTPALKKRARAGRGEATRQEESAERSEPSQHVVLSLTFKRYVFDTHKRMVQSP
UniProt P53597: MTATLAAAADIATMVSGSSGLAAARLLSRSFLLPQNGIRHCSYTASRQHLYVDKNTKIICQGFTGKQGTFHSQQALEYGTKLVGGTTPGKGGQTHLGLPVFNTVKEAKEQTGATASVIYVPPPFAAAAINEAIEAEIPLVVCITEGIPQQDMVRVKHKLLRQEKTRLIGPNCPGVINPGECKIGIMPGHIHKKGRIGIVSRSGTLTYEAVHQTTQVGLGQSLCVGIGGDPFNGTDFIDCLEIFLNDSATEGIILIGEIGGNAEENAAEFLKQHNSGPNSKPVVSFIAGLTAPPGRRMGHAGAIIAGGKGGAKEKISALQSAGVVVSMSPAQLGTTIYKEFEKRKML
UniProt P61081: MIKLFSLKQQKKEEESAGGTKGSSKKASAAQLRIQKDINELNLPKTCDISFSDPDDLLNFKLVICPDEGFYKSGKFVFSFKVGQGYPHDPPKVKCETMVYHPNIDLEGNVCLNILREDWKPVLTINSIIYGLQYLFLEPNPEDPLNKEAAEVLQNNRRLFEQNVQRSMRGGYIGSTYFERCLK
UniProt P55769: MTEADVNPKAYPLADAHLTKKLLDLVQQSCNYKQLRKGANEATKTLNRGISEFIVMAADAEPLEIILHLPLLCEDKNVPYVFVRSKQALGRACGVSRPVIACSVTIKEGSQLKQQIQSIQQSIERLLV
UniProt P61106, whole entry, looked up: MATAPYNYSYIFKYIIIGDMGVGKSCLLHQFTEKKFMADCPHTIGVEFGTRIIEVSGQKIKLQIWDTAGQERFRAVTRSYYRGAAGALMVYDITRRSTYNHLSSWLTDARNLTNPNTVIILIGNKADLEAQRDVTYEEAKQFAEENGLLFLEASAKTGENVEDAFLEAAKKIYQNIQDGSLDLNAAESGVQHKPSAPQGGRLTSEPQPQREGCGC
UniProt P53396: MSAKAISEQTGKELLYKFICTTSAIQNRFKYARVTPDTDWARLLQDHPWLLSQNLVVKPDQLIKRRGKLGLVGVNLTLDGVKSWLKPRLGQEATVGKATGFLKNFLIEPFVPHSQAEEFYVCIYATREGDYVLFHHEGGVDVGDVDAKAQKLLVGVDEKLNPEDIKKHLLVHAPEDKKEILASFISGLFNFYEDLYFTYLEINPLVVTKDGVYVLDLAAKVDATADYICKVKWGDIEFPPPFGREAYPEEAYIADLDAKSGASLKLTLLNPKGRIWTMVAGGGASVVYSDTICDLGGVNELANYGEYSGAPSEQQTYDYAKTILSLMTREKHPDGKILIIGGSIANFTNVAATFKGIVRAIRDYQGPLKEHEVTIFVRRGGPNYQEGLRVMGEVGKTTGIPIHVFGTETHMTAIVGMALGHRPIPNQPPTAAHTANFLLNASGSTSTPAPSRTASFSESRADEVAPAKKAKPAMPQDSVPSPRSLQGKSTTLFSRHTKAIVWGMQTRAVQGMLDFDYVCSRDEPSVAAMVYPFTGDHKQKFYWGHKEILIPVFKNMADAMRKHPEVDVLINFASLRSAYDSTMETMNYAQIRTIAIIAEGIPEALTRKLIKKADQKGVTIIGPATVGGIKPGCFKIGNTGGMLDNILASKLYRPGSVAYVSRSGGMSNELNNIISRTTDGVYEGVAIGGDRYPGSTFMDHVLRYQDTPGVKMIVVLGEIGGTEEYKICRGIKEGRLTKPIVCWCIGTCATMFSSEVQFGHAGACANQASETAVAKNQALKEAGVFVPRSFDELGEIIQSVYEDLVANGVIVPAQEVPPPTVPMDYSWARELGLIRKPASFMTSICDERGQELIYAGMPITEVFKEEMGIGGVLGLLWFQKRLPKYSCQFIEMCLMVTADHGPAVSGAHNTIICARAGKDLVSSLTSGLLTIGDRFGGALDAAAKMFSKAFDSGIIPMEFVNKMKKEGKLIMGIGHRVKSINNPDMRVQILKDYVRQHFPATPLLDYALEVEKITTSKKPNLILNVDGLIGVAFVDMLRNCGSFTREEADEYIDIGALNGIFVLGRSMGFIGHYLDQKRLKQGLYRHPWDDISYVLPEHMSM
UniProt P52701: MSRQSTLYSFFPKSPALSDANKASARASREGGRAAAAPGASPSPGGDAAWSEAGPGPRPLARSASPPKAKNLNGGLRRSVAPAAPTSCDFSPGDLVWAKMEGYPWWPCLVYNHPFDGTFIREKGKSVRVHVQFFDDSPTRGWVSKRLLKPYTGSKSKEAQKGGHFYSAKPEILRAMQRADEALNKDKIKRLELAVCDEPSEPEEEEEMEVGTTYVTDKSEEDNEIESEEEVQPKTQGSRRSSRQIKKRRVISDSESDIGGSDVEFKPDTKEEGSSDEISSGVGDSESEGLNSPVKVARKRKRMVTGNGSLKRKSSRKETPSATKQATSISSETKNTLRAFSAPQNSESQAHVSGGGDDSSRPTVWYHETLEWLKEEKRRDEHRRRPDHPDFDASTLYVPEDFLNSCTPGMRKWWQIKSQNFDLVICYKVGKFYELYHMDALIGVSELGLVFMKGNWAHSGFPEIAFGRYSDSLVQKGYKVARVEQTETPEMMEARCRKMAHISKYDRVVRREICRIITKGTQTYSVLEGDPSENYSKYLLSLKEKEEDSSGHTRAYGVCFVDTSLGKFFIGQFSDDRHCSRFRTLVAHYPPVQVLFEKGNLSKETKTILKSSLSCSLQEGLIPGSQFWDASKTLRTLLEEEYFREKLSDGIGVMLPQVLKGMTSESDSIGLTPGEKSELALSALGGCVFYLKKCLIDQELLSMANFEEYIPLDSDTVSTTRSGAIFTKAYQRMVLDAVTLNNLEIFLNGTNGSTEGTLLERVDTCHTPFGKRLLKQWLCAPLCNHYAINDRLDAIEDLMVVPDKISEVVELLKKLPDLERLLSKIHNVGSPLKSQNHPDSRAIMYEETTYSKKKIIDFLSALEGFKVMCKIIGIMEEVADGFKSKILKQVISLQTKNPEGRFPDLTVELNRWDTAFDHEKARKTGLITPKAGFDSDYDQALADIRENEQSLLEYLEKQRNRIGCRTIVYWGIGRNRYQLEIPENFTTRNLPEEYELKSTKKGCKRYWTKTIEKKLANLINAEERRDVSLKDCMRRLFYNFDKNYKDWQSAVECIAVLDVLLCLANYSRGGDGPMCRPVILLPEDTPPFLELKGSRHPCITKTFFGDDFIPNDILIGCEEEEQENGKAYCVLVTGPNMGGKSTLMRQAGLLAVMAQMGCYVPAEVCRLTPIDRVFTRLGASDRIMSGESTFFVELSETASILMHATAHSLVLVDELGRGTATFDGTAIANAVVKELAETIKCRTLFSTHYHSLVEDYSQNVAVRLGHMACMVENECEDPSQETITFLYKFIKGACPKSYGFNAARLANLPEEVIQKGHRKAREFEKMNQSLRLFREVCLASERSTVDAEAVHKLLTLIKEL
UniProt P55072, whole entry, looked up: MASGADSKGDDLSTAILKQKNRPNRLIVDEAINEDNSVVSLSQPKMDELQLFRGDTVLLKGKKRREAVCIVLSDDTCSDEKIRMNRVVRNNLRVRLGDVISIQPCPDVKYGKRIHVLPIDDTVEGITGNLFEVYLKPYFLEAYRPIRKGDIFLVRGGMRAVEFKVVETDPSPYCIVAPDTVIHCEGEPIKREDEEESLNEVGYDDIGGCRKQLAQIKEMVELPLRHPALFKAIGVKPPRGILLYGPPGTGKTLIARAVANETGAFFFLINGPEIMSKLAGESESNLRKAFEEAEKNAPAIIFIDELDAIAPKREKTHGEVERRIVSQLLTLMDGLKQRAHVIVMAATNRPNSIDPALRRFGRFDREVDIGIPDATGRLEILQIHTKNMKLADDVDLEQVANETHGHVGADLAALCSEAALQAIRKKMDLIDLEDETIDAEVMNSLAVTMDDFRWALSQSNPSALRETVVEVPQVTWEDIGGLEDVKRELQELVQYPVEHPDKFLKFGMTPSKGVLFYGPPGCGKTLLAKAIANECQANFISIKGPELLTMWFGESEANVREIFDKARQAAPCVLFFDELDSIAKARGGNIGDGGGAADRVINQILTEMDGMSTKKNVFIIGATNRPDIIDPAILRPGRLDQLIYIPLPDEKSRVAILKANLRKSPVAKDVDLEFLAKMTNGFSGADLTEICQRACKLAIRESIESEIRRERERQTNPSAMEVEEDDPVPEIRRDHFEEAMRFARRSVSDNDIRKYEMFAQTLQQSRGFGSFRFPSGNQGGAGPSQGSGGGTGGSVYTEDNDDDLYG
UniProt P52564: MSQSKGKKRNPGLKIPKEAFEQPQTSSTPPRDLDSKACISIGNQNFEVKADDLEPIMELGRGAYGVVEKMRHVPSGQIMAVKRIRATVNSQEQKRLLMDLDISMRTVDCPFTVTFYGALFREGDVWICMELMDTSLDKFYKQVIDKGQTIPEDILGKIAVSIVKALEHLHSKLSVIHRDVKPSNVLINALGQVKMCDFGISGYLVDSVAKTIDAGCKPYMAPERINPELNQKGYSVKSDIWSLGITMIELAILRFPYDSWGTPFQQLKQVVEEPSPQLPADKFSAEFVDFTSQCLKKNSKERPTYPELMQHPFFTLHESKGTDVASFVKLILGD

Compound in the assay: COC(=O)/C=C/c1ccccc1 [methyl cinnamate]
The experiment in a line: log2 ratio of iodoacetamide-alkyne labeling of the cysteine site, DMSO over compound (competition); higher = stronger covalent engagement of the cysteine by the compound, active = 1 or more. Particulars: 500 µM; treatment time 1 h; system: HEK293T cell lysate. An outline of the steps:
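Reporter intensities give each cysteine's log2 competition ratio as the mean of control channels over the mean of compound channels. The samples were HEK293T lysate (2 mg/mL) given vehicle or electrophile (500 µM, 1 h, ambient temperature), then iodoacetamide alkyne (1 h), followed by click coupling to sCIP-TMT reagents, pooling, trypsin digestion overnight at 37 °C, streptavidin enrichment, acid elution, Orbitrap Eclipse LC-MS/MS with FAIMS and FragPipe quantification. Duplicate channels and three replicates were run, and cysteines quantified in only one replicate were discarded.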
For HNRNPM C653 (UniProt P52272), the “log2 ratio of iodoacetamide-alkyne labeling” value (shortened to “log2 ratio”) was inactive: 0.161.

Turning to DSTN C147 (UniProt P60981), the “log2 ratio” value was inactive: -0.178.

Regarding DGKE C135 (UniProt P52429), the “log2 ratio” value was inactive: 0.107.

With ELL C473 (UniProt P55199), the “log2 ratio” value was inactive: 0.125.

For the target COPB1 C248 (UniProt P53618), the “log2 ratio” value is inactive: 0.336.

Consider DGKE C264 (UniProt P52429), for which the “log2 ratio” value is inactive: 0.19.

For the target EEFSEC C55 (UniProt P57772), the “log2 ratio” value is inactive: 0.0122.

SUCLG1 C172 (UniProt P53597): the “log2 ratio” value was inactive: 0.3.

PSMD4 C37 (UniProt P55036): the “log2 ratio” value is inactive: 0.0898.

On to HNRNPF C122 (UniProt P52597), for which the “log2 ratio” value is inactive: -0.135.

Consider EIF5 C59 (UniProt P55010), for which the “log2 ratio” value is inactive: 0.138.

As for UniProt P61081_C47, the “log2 ratio” value was inactive: 0.134.

Take UniProt P55769_C30: the “log2 ratio” value was inactive: 0.292.

For the target UniProt P61106_C40, the “log2 ratio” value was inactive: 0.314.

In the case of UniProt P61077_C107, the “log2 ratio” value is inactive: -0.0973.

RARS C115 (UniProt P54136): the “log2 ratio” value was inactive: 0.0596.

For ACLY C20 (UniProt P53396), the “log2 ratio” value is inactive: 0.15.

MSH6 C694 (UniProt P52701): the “log2 ratio” value is inactive: -0.0912.

Consider SUCLG1 C60 (UniProt P53597), for which the “log2 ratio” value is inactive: 0.191.

Take TPI1 C124 (UniProt P60174): the “log2 ratio” value is inactive: 0.086.

As to NUBP1 C256 (UniProt P53384), the “log2 ratio” value is inactive: 0.214.

As to UniProt P55072_C209, the “log2 ratio” value was inactive: 0.225.

NUBP1 C31 (UniProt P53384): the “log2 ratio” value was inactive: 0.598.

In the case of UniProt P60891_C226, the “log2 ratio” value was inactive: -0.169.

Take UniProt P61221_C88: the “log2 ratio” value was inactive: 0.0838.

In the case of MSH6 C1117 (UniProt P52701), the “log2 ratio” value was inactive: 0.314.

As for MSH6 C88 (UniProt P52701), the “log2 ratio” value was inactive: 0.0172.

COPA C453 (UniProt P53621): the “log2 ratio” value was inactive: 0.0996.

For the target UniProt P60763_C157, the “log2 ratio” value is inactive: 0.144.

Turning to BLM C361 (UniProt P54132), the “log2 ratio” value was inactive: 0.461.

For the target ELL C494 (UniProt P55199), the “log2 ratio” value was inactive: 0.125.

On to UniProt P62249_C25, for which the “log2 ratio” value is inactive: 0.2.

For UniProt P60709_C257, the “log2 ratio” value was inactive: -0.258.

Take UniProt P52564_C196: the “log2 ratio” value was inactive: 0.244.

In the case of UniProt P60709_C217, the “log2 ratio” value was inactive: 0.00818.

Take UniProt P60891_C230: the “log2 ratio” value was inactive: 0.058.

On to UniProt P55072_C415, for which the “log2 ratio” value is inactive: 0.0649.

Source of the values: the supplement of paper PMC11006884.
